The assay deals with X. laevis rCdc45-FLAG (X. laevis) (UniProt Q9YHZ6). Briefly: co-IP; rCdc45-FLAG added to the replication reaction in egg extract with CULi and p97i; chromatin isolated in S-phase or 30 min after CyclinAΔN; replisomes released by benzonase, FLAG-IP, elution with FLAG peptide; immunoblot; only the target purified. (A western blot detects proteins with antibodies after separation by electrophoresis.)

Sequences of proteins named here, by UniProt entry; tags and fusion partners are left off.
UniProt Q9YHZ6: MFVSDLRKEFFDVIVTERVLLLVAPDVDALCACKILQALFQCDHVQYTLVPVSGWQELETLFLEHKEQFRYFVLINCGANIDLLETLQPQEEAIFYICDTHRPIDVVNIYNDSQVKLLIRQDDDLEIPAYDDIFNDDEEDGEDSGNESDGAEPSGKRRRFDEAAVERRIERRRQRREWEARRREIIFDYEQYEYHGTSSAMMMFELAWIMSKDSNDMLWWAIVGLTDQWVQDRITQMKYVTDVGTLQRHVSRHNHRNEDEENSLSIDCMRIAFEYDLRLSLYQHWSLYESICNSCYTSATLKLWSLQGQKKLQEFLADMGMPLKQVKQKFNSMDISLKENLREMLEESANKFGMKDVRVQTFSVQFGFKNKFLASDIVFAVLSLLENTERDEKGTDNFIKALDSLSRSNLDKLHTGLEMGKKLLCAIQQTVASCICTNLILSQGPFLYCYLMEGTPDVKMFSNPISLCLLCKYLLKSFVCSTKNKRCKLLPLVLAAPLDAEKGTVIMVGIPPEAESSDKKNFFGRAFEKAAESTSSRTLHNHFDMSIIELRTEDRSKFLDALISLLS
UniProt Q91876: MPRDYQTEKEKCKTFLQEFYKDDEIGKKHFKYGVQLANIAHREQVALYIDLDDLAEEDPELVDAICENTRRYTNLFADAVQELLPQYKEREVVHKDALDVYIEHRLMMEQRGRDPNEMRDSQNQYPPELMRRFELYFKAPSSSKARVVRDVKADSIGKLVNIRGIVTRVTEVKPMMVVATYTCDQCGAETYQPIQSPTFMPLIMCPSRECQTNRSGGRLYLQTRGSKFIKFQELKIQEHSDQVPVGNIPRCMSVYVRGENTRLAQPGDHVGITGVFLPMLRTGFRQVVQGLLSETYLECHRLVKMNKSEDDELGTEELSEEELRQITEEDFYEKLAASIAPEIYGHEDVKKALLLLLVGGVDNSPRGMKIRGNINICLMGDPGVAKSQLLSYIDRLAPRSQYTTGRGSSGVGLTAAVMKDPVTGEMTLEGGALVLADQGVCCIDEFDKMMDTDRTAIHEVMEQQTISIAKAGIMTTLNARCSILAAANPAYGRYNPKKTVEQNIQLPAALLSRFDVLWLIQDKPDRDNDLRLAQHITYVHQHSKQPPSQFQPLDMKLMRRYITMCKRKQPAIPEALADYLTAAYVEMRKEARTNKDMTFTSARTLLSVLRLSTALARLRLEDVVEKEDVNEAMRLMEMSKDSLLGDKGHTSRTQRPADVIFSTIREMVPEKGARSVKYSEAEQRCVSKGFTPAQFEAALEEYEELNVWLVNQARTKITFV

These are yes or no findings as the source states them, for the method shown. In cells and extracts the contact can be indirect. Some binding calls cover weakened binding; strength is not graded here.

With Mcm7 (from UniProt Q91876 1-720), the binding result is given as “binds”.

Source of the values: PMC12242765, “CDK-driven phosphorylation of TRAIP is essential for mitotic replisome disassembly and MiDAS” (Nucleic Acids Research, 2025).
